Percent effect of library compounds

Measurements from “University of Dundee, Small-Polar-MMV Screening Library” (2021), ChEMBL document CHEMBL3988442.

Toxoplasma: 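Assay of Toxoplasma gondii numbers, read through their beta-galactosidase reporter with a colour substrate. Tested at 10 µM. Higher reads as fewer parasites (inferred from which compounds were picked for retests). Of about 67,000 compounds tested this way, about 260 (0.38%) reached 50% or more in at least one test.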
Leishmania in macrophages: 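Cell assay of Leishmania donovani living inside macrophages; the read-out is not stated. Compounds at 30 µM. Higher reads as stronger inhibition (inferred: compounds with an IC50 in retests scored well above the rest). Size under these conditions: about 69,000 compounds, about 1,000 of them at 50% or above in at least one test.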

Results are given as percent effect.
The controls that fix the scale are not given in the record; negative values are as filed.
This is an unselected part of the compounds tested.

compound,Toxoplasma,Leishmania in macrophages
COc1ccccc1C(C)(C)NC(=O)NCCC(=O)NC1CCCC1,2.476%,1.34%
Cc1nc(C(=O)N(C)CC2CCCO2)nn1-c1ccccc1C(C)C (centres undefined),0.4872%,0.9975%
CCN(Cc1ccc(C#N)cc1F)C(=O)C(C)(C)C,0.8115%,20.29%
Cc1cnn(CC2CCCN2C(=O)c2cc(Cl)ccc2F)c1 (centres undefined),-1.001%,-5.128%
COC(=O)c1cccc2nc([C@H]3CCN(Cc4ccccc4F)C3)oc12,6.619%,29.92%
c1cc(-c2ccc(CN3CCC4(CCNCC4)CC3)s2)[nH]n1,6.817%,16.75%
Cn1cccc1C(=O)N1CCC2(CC1)c1nc[nH]c1CCN2S(C)(=O)=O,8.997%,35.63%
Cn1ccc(NC2CCN(C3CC3)C2=O)n1 (centres undefined),-7.611%,-24.28%
CC[C@@H]1N(Cc2ccc(C)s2)CCC[C@]12CCC(=O)N2C.O=C(O)C(F)(F)F,-4.558%,9.993%
CC(O)c1cn(CC2CCN(C(=O)c3cscn3)CC2)nn1 (centres undefined),-38.28%,31.87%
CCC(=O)N1CCc2[nH]cnc2C12CCN(C(=O)CCS(C)(=O)=O)CC2,9.945%,19.82%
CCCn1nc(C(=O)NC2(c3ccc(Cl)cc3)CCCC2)ccc1=O,5.302%,28.04%
CNC(=O)CCN(C)CC1(c2ccc(Br)cc2)CC1,0.8526%,8.609%
Cn1cnc2nc3n(c2c1=O)CCC3,6.206%,-13.34%
CCc1ccc2nc(C)cc(C(=O)NC3CCC(=O)N(C)C3)c2c1 (centres undefined),-1.176%,5.446%
CN1CC2(CNCCN(C(=O)Nc3ccccc3)C2)CC1=O.O=C(O)C(F)(F)F (centres undefined),-4.281%,6.768%
CC(C)(C)OC(=O)N1CCCN1C(=O)c1cccc2cc[nH]c12,-3.063%,19.83%
Cc1nn(CCC(=O)NC2CCCOC2)c(C)c1C (centres undefined),2.219%,22.72%
O=C(O)c1ccccc1C1CCN(Cc2ccc(-c3cc[nH]n3)o2)C1 (centres undefined),10.83%,8.649%
c1cc(-c2noc([C@@H]3CCCN3CC3CC3)n2)cc(N2CCCC2)n1,13.31%,10.27%
CC(C)C(=O)N1CCCC2(C1)CN(c1nncs1)CCO2.O=C(O)C(F)(F)F (centres undefined),-2.501%,43.94%
CS(=O)(=O)N1CCCC(n2nnn(-c3ccccc3)c2=O)C1 (centres undefined),-20.99%,12.99%
O=C1CCCN1Cc1nnc2n1CCCN(C(=O)c1ccco1)C2,-3.854%,2.075%
COCCn1ccc(NCc2sccc2C)n1,0.8021%,9.061%
Cc1cnn(CCNCc2nccn2Cc2ccccc2)c1,9.422%,-8.274%
CCN(Cc1ccc2c(c1)OCO2)C(=O)c1ccc(=O)n(C)c1,-0.6509%,8.108%
COc1ccc(CN2C[C@@H](CN(C)CCO)[C@@H](CO)C2)cc1Cl,-0.7692%,33.72%
O=C(O)C(F)(F)F.[H][C@@]12CN(Cc3cccc(F)c3)C[C@]1([H])CN(C(=O)c1cccn1C)C2,-6.028%,-3.357%
CC(C)N1CCC(CC(=O)N(C)CC(=O)c2ccc(O)cc2)CC1,7.903%,13.4%
CCOCC1CN(C(=O)Cc2ccccn2)Cc2cnn(CC)c21 (centres undefined),0.1765%,-1.737%
Cc1csc(CCNC(=O)NC(C)Cn2cccn2)n1 (centres undefined),-5.775%,-13.91%
Cc1ccc(OCCC(=O)NC2CC(=O)N(C)C2)cc1C (centres undefined),-6.472%,6.317%
O=C(CCOc1ccccc1)N1CCC(Nc2cccnn2)CC1,-7.596%,19.1%
CCOc1ccc(-c2nc(C(=O)NCC3CCOC3)cs2)cc1 (centres undefined),2.758%,24.75%
CN(C)Cc1cnc(C2CCN(C(=O)c3cccc(Cl)c3)C2)[nH]1 (centres undefined),25.89%,-18.71%
Cc1nnc(-c2cccc(N3CCC(NC4CCSC4)CC3)c2)s1 (centres undefined),-9.646%,17.73%
O=C(C1CC=CC1)N1CCc2c(COCc3ccncc3)cncc2C1.O=C(O)C(F)(F)F.O=C(O)C(F)(F)F,13.89%,31.86%
OCCN(Cc1nc(-c2ccc3c(c2)OCO3)no1)Cc1cccs1,0.0801%,19.72%
O=C(C1=CCCC1)N1CC[C@]2(C[C@H](OCc3cccnc3)CO2)C1.O=C(O)C(F)(F)F,0.4926%,22.3%
Cc1cc(=O)[nH]c(NCCNC(=O)C(c2ccc(F)cc2)N(C)C)n1 (centres undefined),-1.544%,-13%
CCn1ccnc1CN1CCCC1C(=O)Nc1nccs1 (centres undefined),-2.045%,-0.6332%
CC1(C)CN(C(=O)Nc2ccc(Cn3cccn3)cc2)CCO1,-1.535%,0.394%
O=S(=O)(c1ccc(F)cc1Cl)N1CCCC1c1ccncc1 (centres undefined),0.726%,36.46%
Cc1cc(C)c(C(=O)NC(c2nnc3n2CCNCC3)C(C)C)c(C)c1 (centres undefined),10.28%,-19.71%
CCN(CC)c1ccc(NS(=O)(=O)c2cnn(C)c2)cn1,8.725%,22.16%
CN1CC(C(=O)NCc2cccnc2OCc2ccccc2)CC1=O (centres undefined),-0.3544%,31.68%
[H][C@@]12CS(=O)(=O)C[C@]1([H])N(C(=O)c1cnc(C)nc1)CCN2CCC,-3.973%,15.54%
CCc1[nH]c2c(CNC(=O)[C@@H]3CCCN3C)cc(C)cc2c1C,-14.1%,-12.38%

Some entries from above, unchanged:

| compound | Toxoplasma | Leishmania in macrophages |
|---|---|---|
| `COc1ccc(CN2C[C@@H](CN(C)CCO)[C@@H](CO)C2)cc1Cl` | -0.7692% | 33.72% |
| `O=S(=O)(c1ccc(F)cc1Cl)N1CCCC1c1ccncc1` (centres undefined) | 0.726% | 36.46% |
| `CC(C)N1CCC(CC(=O)N(C)CC(=O)c2ccc(O)cc2)CC1` | 7.903% | 13.4% |
| `OCCN(Cc1nc(-c2ccc3c(c2)OCO3)no1)Cc1cccs1` | 0.0801% | 19.72% |